Results are given in words; binding and its absence hold for the method and conditions named. A result given as binding can be weak or reduced; the word gives no strength.
Columns and labels:
[1] = target: T1, C-reactive protein (CRP), human, purified (Sigma) (human) (UniProt P02741); test: ELISA; CRP immobilised, L-rFBG added; acidic pH (5.5, 6.0, 6.5 in MBS), 2 or 2.5 mM calcium; HSA-coated wells subtracted; both purified
T1 sequence: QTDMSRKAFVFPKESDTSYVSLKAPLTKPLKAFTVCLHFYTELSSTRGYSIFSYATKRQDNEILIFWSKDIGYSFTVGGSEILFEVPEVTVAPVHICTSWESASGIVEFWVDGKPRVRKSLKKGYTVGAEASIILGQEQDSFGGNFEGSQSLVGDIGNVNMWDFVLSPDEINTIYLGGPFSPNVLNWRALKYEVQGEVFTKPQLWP

[2] = target: T1, C-reactive protein (CRP), human, purified (Sigma) (human); test: ELISA; 0.8 ug CRP immobilised on Maxisorp wells; L-rFBG in blocking buffer (1% HSA in TBST, pH 7.4) added, 37 C, 2 h; detected with anti-myc; HSA-coated wells subtracted; both purified

binding [1]: binds
binding [2]: binds
Substance: recombinant FBG domain of L-ficolin (L-rFBG) (human) (domain or fragment)

From paper PMC2629585
